Screen size: about 53,000 sequences; about 3,700 (7%) were called active.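 How the source made its calls: active means gene knockdowns whose robust z-score for IL-1 alpha signal is at least 2 or at most -2, so actives lie on both sides; inactive means the rest.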 Some of the results follow.

The nature of this experiment: Components of the Cytosolic LPS Sensing Pathway: Gene Identification via Genome-wide siRNA Screen.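 Further: robust z of the log signal after scaling to non-targeting control siRNA wells of the plate.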 The note with it: RAW264.7 macrophages, IL-1a HTRF, actives lie on both sides, screened at 100 nM (by protocol), cells primed 5 h with Pam3CSK4 first. An outline of the steps: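 Using IL-1a HTRF as read-out, the screen measured release from RAW264.7 cells after 48h siRNA knockdown (100 nM), 5 h Pam3CSK4 priming and 24 h cytosolic LipidA. Values were expressed relative to negative-control wells as robust z-scores.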
(In TR-FRET formats the signal depends on donor and acceptor labels being close together.)
In the case of CCCGAUUCCCACUUAAAACTT against Pcdhga3, the z-score was inactive: -0.132. Then GGAGAAAGAAGAGCUAUGATT against Pla2g12b, with inactive: -1.78.

On to GGAUUUCAACUAUUUGUUGTT against Spta1, for which the z-score is inactive: -1.04. GGACAGCAGCGUGAACUAUTT against Alx1: the z-score was inactive: 0.254. Then CCCUCACUAUAACACUAUUTT against Six5, with inactive: -0.418; and CGAAGACACGCUACGAAGATT against Minpp1, with inactive: -0.161; and GGCCCUUAAGAGAACUCUUTT against Olfr1046, with inactive: -1.77. Then GCUGAUAUGCACAAGAUGGTT against Gps1, with inactive: -0.0845. Then GGUACAUUUUAAACAAUGCTT against Nptn, with inactive: -0.247; and CCUAUACAAGUAGGCAAUATT against Cipc, with inactive: -0.811. Regarding GGAGUUUAGAAGGGAGGAATT against Slx4, the z-score was inactive: 1.05. Then GAAAACCUACCAGUGGGUGTT against Adamtsl5, with inactive: -0.784; and GGAGCGUACCAUGAUCGAUTT against Parvb, with active: -2.17.

Turning to GCACUUCCCUCCCUAUGCATT against Cep20, the z-score was active: -2.11. Then CGGGUAAUAUUCUUUUCAATT against Rex2, with inactive: 1.76. On to CCAACAGGCAUAUGCAUAUTT against Ddx5, for which the z-score was inactive: 0.364. Then CCUCCUGUGUUACUUGCGUTT against Clcf1, with inactive: 0.57; and GGCAAUUUCACACUAAUCATT against Mtmr14, with inactive: -1.24. Then GGCAAAGUGUCCCUCCGAATT against Skint7, with active: 2.06; and GGAACCACUUAUUUAUUUCTT against Gba2, with inactive: -0.00998. Then GGCCUCAGCUCACAACAAATT against Sf3b4, with inactive: -1.71; and GCGAUCGAUGUCGUACUCUTT against Smg1, with inactive: 0.432; and GCACGCAGACAAAAUGGGCTT against Wdr63, with inactive: -0.341. For the sequence GCUUGGCUAUCAAAACUUCTT against Ccdc22, the z-score was inactive: -0.00442. Then GGAAGAAGCUAGAACAGGATT against Add2, with inactive: -0.143. Then GCAAGCAACGGUCAUUCUCTT against Slc10a6, with inactive: 0.862.

Take GGCAUUAGAGACAGACUGGTT against Acer3: the z-score is inactive: -0.456. On to GGUAGUGACUGUGCUAUCGTT against Gpr35, for which the z-score was inactive: -0.979. With GGUGGCCGUGAAGAAGAUCTT against Mapk4, the z-score is inactive: -0.902. Then GGUGGAACAGGCAGAAUUCTT against Syn2, with inactive: 1.92; and GCACUCCUGUCAUUCGUGUTT against Gnaq, with inactive: -1.59; and CCUCCUUAUCCAUAAUAUUTT against Slc35a3, with inactive: 0.727.

GGACUACUCGGAUUUAGCUTT against Lonp1: the z-score was inactive: -0.318. For the sequence GGACUCCUAUGUAGGUGAUTT against Actc1, the z-score is inactive: -0.752. Then CCUCUGACCUAGUUUUUCUTT against Nav3, with inactive: 1.02; and GGCCAAAUAGCACUAAAGUTT against Ttll4, with inactive: -0.0504; and GCACGUCAGAAUCUCCAGATT against Pln, with inactive: -0.669. Then GCUCCUGGUCUCAUUUACATT against Taf9b, with inactive: -0.386.

Take GGCUGCUAGCUUAUAUAAGTT against Med21: the z-score was inactive: -0.472.

As to GGGUACAGACGAUGUUUGATT against Unc45b, the z-score was inactive: 0.347. As for GCCCUCUGUGAGUAGUAAUTT against Shroom3, the z-score is inactive: 0.603. Then GGAUAGAUCCUUGAAAAAGTT against Tmprss7, with inactive: 1.05; and “GGUUACCUGGGCAUGGGAATT against 4732465J04Rik”, with inactive: 0.341. Then GGUAUCAAGUAUGACCUAGTT against Lrrc8a, with inactive: -1.2. Then GGACUCUUUCAUAAGCAUATT against Etv5, with inactive: -0.415; and GGUGUUGGGCUACAAGGAUTT against Dmtn, with inactive: 0.404. For the sequence CGCGUAACUCCUAUGUAGUTT against G6pd2, the z-score was inactive: 0.759.

On to GGGAUAGCUCUAGUAUAUUTT against Slc24a2, for which the z-score was inactive: -0.749. Then GGAAAGGUUGUUAUUGAUGTT against Psmd14, with inactive: -0.552. As to ACCGUUUUUAAACCUCUGATT against Ociad2, the z-score was inactive: -1.12. Then CGUCACUGAUGUGGCUUUUTT against Plpp6, with inactive: 0.755; and GGUCCAAGAGGAAAGACAATT against Adarb2, with inactive: 0.67. Then CCUGGUCUAUAAGGUUUGUTT against Slc25a37, with inactive: 1.13; and CCUGGAUACCAAUGAUGAATT against Grk4, with inactive: -0.137; and GGAAGGGCAUCCACUUUGATT against Psd, with inactive: -0.563. Then GGGAUAAGAGAGCAAUUAATT against Usp17la, with inactive: -1.42. As to GGAAGAUUGAAAUAGGCGATT against Mecom, the z-score was inactive: -1.25.

Take CGAGCUAACAAACUUGAACTT against Foxn2: the z-score is inactive: 0.144. Take CCCUGGAUGAAAAUGACAATT against Cdh24: the z-score is inactive: 0.793.

Take GGAAGAAUGUAAGUAUACCTT against Zscan12: the z-score was inactive: 1.68.

In the case of GGAUUUUUGUGAGUCUAAGTT against Sdr9c7, the z-score is inactive: 0.257. Then GGCUGAGCUGCGCAACAAATT against Gas8, with inactive: -0.00831; and GGAGGAGGACUCAAUCUCATT against Hps5, with inactive: 1.23; and GGACAGAAAGGUACCCUUATT against Slc30a5, with inactive: 0.461. Then CCAAUUGACGGUUUAUGUUTT against Scaper, with inactive: -1.2; and CCAAUGGUCAGGAGUGUAGTT against Prpsap2, with inactive: -0.766. Then GUCUUCUCUGCCUGUCUGATT against Lce3c, with inactive: -0.0986.

As for GAAGGUGAAGUGCAGGAAGTT against Fxyd7, the z-score is inactive: -0.081.

As for GCCUUUGAUUUGAUUUCAUTT against Olfr1047, the z-score is inactive: 0.896. Then GGUCGUCUUUUAAGAGUUUTT against Ccdc71l, with active: 3.03; and GGCUGACUUUCUGUCACAGTT against Olfr655, with inactive: 1.03. Then GGAUAAUAGGAACAAUCUGTT against Sval1, with inactive: 0.207; and GGCAUGAAGUGAUCAAUAUTT against Gsto2, with inactive: -0.112; and GCCAAUGACCCAAAUUCUATT against Ppip5k1, with inactive: 0.812.

Consider GGUUUGAAUUCAAGUUCAUTT against Klhl5, for which the z-score is inactive: 0.616. Then GCAGUGUAAUGUGGCCUACTT against Rorc, with inactive: 0.682; and CCCAGAUGAACAAAUGACCTT against Tceanc, with inactive: 0.582; and GCCAAUGAGAGUAGGAAAGTT against Elovl3, with inactive: 1.43. Then CCAAGUCUAAUGUUUACAATT against Slc38a7, with inactive: -0.333; and GGUGCAAGAUCAAGAACUGTT against C1ra, with active: 2.78; and GGAAGCUAAGAAGAUGGAGTT against Ripk4, with inactive: 1.2. Then CCUAAAGCUUGGCAACCCATT against Vapb, with inactive: -1.15; and GGAGUUUGGCGAAGACCUATT against Ice1, with inactive: -0.472; and GGAUCUGACAUGUUGUAUATT against Fshr, with inactive: -0.792. Regarding GGCUACAGCCGUCAAAGAUTT against R74862, the z-score is inactive: -0.091.

For CCAUUGAGAUCAGCGACAUTT against Abtb2, the z-score was inactive: -0.748. GGCAGUUUGUUAAUGAAUGTT against Pcsk1: the z-score was inactive: -0.901. Then “GGUAGAUUAGCUGAUCCCATT against 2310057J18Rik”, with inactive: -0.308. Then GCCGUAGUUAAGGUAUCUGTT against Btnl10, with inactive: -1.82. Then GGAAAAAUUUGAAGCAGGATT against Coa6, with inactive: -0.734; and CGUCAACAGGUUUGCUGUGTT against Gbx1, with inactive: -1.47; and CGUGAGAGAUACUUUUUAGTT against Rps6ka5, with inactive: -0.751. For GGUGCUGAAGAUGCUGACGTT against Zfp503, the z-score was inactive: -1.46. Then GGACUGGUUUUUUUUUUGUTT against Denn2b, with inactive: 0.236. Regarding GGCUUUUUCCACAUGUGCCTT against Olfr514, the z-score was active: -2.29. Then GCUUUGCAAUUCACAGGGATT against Scgb1b27, with inactive: -1.76. Then CCGGUAUUUAGGAACUGCCTT against Irak2, with inactive: -1.66.

In the case of GGGACUCACAAUUGUAGAATT against Efemp1, the z-score is inactive: -0.058.

For the sequence “GGAGCAGCAUCCACACUUATT against E230015B07Rik”, the z-score is inactive: 0.81. Then CCGUGGAACUUAAAUAGUUTT against Pard6g, with active: 2.66; and CCAAUAUUUGGGAUACUGGTT against Sacm1l, with inactive: -0.0488; and GCGAUGGCUAUUUUGAUUGTT against Nfkbib, with inactive: 0.749. Then GGAGAGAAAUUUGACACUCTT against Mgrn1, with inactive: -0.0326. Turning to GGACUUGGAGACAUUGCUATT against Ifi209, the z-score is inactive: 0.548. Then “GCCUCUGGCAGAGAAAAGATT against 4930579K19Rik”, with inactive: -1.78; and CCAGCUUUUCCGAAUCAAUTT against Galnt7, with inactive: 0.926. Then CCGUUUACUUCGUCCAAGUTT against Crlf1, with inactive: -0.134.

The values are drawn from PubChem BioAssay AID1508600 (Functional Genomics Laboratory (NCATS/FGL), 2020).
